# Publication PMC4625158
# Chains of the proteins cited; added tags and fusions are not shown. Lines headed by an entry give the natural chain unless they say otherwise; changes in a name come on top.
# UniProt P08168: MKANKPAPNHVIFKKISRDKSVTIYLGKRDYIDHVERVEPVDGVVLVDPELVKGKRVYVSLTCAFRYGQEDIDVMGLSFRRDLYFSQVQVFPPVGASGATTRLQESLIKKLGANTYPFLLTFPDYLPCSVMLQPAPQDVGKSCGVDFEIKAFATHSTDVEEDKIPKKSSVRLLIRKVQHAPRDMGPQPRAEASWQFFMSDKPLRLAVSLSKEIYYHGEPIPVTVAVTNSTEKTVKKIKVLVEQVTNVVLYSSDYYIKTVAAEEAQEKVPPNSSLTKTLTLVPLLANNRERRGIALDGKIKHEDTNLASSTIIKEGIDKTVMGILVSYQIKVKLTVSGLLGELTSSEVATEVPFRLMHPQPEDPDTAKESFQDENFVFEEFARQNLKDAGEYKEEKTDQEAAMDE
# No constants are given. Whether binding was seen depends on the method and setting.
# Biological target: mutant arrestin R175E (bovine visual arrestin-1, aa 1-404, R175E) (bovine) (UniProt P08168)
# Assay: SAXS; small angle X-ray scattering in solution, 10 °C, 10 mM HEPES, 150 mM NaCl, pH 7.5; concentration series (arr-1: 1.9, 3.0 and 8.5 mg/mL; R175E: 0.4, 0.9 and 1.7 mg/mL; p44: 1.0, 2.0 and 4.6 mg/mL), data extrapolated to infinite dilution; both purified
substance,measurement,value
"mutant arrestin R175E (bovine visual arrestin-1, aa 1-404, R175E) (from UniProt P08168 1-404)",binding,"no binding (tested: 0.4, 0.9 and 1.7 mg/mL)"
